Test results taken from patent publication US20130237556A1, “BERBERINE ALKALOID AS A MEDICAMENT FOR PREVENTION AND TREATMENT OF NEURAL DISEASE” (HONG KONG BAPTIST UNIVERSITY, priority 2012, published 2013).
At least one compound was matched to its structure with a doubt left.

How the values were obtained:
N2a-SwedAPP cells [1] = test: Immunofluorescence of p-APP in endosomal compartments (Rab5); assay type: cell-based, mouse; conditions: 20 μM LY294002 1 h pretreatment, then 20 μM BBR 3 h
Experimental: N2a-SweAPP cells are mouse neuroblastoma N2a cells stably transfected with human Swedish mutant APP695, and were gifts from Dr. Gopal Thinakaran (University of Chicago, Chicago Ill.). Cells were maintained in Dulbecco's modified Eagle's medium (DMEM) (Invitrogen, Carlsbad, Calif.) supplemented with 10% fetal bovine serum, penicillin and streptomycin and 200 μg/mL G418 (Invitrogen). Cells were cultured either in multiwell dishes or on 60 mm tissue culture plates in DMEM 10% with FBS Cell cultures were incubated at 37° C. in a humid 5% CO2/ 95% air environment. After cells were grown close to confluence, they were treated with/without different concentrations of BBR in DMEM (1% FBS) for 24 h. […]
For higher resolution microscopy, images were acquired using an Olympus IX70 Delta Vision microscopy system (Applied Precision, Issaquah, Wash.) with a 100×1.5 numerical aperture oil immersion lens. […] Subsequently serial Z-stacks of fluorescence images at 0.2-μm interval were acquired and deconvolved via a controlled iterative algorithm to generate high-resolution images of cells using […] (Applied Precision).

N2a-SwedAPP cells [2] = test: Western blot of N2a-SwedAPP cell lysates (p-Akt, pGSK3, CTFs, p-APP, PHF-1); assay type: cell-based, mouse; conditions: LY294002 20 μM with 20 μM BBR
Experimental: N2a-SweAPP cells are mouse neuroblastoma N2a cells stably transfected with human Swedish mutant APP695, and were gifts from Dr. Gopal Thinakaran (University of Chicago, Chicago Ill.). Cells were maintained in Dulbecco's modified Eagle's medium (DMEM) (Invitrogen, Carlsbad, Calif.) supplemented with 10% fetal bovine serum, penicillin and streptomycin and 200 μg/mL G418 (Invitrogen). Cells were cultured either in multiwell dishes or on 60 mm tissue culture plates in DMEM 10% with FBS Cell cultures were incubated at 37° C. in a humid 5% CO2/ 95% air environment. After cells were grown close to confluence, they were treated with/without different concentrations of BBR in DMEM (1% FBS) for 24 h. […] For the concentration-dependent treatment, cells were treated with serial dilutions of BBR ranging from 0-20 μM for 2 or 12 h prior to lysis with ice-cold RIPA buffer (20 mM Tris, pH 7.4, 150 mM NaCl, 1% triton-X, 0.5% sodium deoxycholate, EDTA) containing protease inhibitor cocktails (EMD chemicals, Philadelphia, Pa.) to find the optimal range of BBR. For the time-dependent application, cells were treated with a 20 μM concentration of BBR and incubated at time points ranging from 0-180 min prior to lysis. For immunofluorescent staining, N2a-SwedAPP cells were seeded on glass cover slips at a density of 0.5×10^5 viable cells per well in a 24-well plate. […]

With `O=c1cc(N2CCOCC2)oc2c(-c3ccccc3)cccc12` [LY294002] the “effect on BBR-induced reduction of p-APP in endosomal compartments” value (N2a-SwedAPP cells [1]) was “significantly inhibited” and the “effect on BBR-induced reduction of p-APP, CTFs and PHF-1” value (N2a-SwedAPP cells [2]) was “reversed”.
